{"source": "patent JP2016182135A", "target": "ヒトHER2受容体 (human) (UniProt P04626)", "test": "binding confirmed; method not told there", "note": "These are yes or no findings as the source states them, for the method shown. Some entries that bind do so weakly or less than the wild type."}
{"binder": "抗体4385 (antibody, V domains shown) VH: QVTLKESGAELMKPGASVKLSCKATGYTFTGYWIEWVKQRPGHGLEWIGEILPGSGSTNYNEKFKGEATFTADTSSNTAYMHLSSLTTEDSAIYYCARWGDGSFAYWGQGTLVTVS VL: DIVMTQSQKFMSTSVGDRVSITCKASQNVGTAVSWYQQKPGQSPKLLIFSTSNRYTGVPDRFTGSGSGTDFTLTISNMQSEDLADYFCQQYRSYPFTFGSGTKLEIKR", "values": [{"measurement": "binding", "result": "binds"}]}
{"binder": "抗体4518 (antibody, V domains shown) VH: EVQLQQSGADLVKPGASVKLSCTTSGFNIKDIFIHWVKERPEQGLEWIGRIDPANDNPKYDPKFQGKATISADTSSNTAYLRLSSLTSEDTAVYYCAGGPAYFDYWGQGTTLTVS VL: DIVMTQSHKFMSTSVGDRVSISCKASQDVIAAVTWYQQKPGQSPKLLIYWASTRHTGVPDRFTGSGSGTDYTLTISSMQAEDLALYYCQQHYSTPWTFGGGTKLEIKR", "values": [{"measurement": "binding", "result": "binds"}]}
